Measurements published in patent publication US20080188654A1, “Compounds for treatment of inflammation, diabetes and related disorders” (Theracos, Inc., priority 2001, published 2008).
At least one structure is not confirmed: it was looked up by name or label, or the drawing left a doubt.

System: DBA/1J mice
Experiment: Collagen-induced arthritis in mice
Assay type: in vivo, mouse
Details: 5 mg/kg oral twice daily 14 days (positive control)

## C[C@@H]1C[C@H]2[C@@H]3CCC4=CC(=O)C=C[C@]4(C)[C@@]3(F)[C@@H](O)C[C@]2(C)[C@@]1(O)C(=O)CO [dexamethasone, reference compound]
  histology of hind limbs: within normal limits
